# Measured values from paper PMC8536713.
# Results are given in words; binding and its absence hold for the method and conditions named. Binding seen in cells or lysates may run through a third protein. Here binding means that the protein was enriched with, or labelled near, the bait; the list need not be complete.
# T1: Nop2-TAP (S. cerevisiae) (UniProt P40991)
# T1 sequence: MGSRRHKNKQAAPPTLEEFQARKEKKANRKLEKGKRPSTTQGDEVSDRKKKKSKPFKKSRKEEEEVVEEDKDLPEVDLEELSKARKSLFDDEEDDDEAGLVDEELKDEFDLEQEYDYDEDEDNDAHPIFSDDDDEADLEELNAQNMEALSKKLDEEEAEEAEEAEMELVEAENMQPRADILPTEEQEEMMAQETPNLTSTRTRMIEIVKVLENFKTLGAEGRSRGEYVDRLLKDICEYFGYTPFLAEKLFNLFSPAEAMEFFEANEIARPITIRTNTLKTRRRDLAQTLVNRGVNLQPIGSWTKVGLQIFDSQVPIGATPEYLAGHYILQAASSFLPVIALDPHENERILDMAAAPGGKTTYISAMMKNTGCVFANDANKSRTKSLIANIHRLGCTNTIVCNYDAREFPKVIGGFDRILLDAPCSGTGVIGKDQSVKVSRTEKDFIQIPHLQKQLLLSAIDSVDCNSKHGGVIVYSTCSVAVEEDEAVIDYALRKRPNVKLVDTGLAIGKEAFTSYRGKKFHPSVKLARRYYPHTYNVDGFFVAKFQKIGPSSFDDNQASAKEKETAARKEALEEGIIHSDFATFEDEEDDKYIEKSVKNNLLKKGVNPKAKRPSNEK
# B1: Nop15 (protein, UniProt P53927 1-220)
# chain: MVKSTSKTSTKETVTKQPTEEKPIQEKEELALETSSSSSDEEDEKDEDEIEGLAASDDEQSGTHKIKRLNPKKQANEKKSKDKKTLEEYSGIIYVSRLPHGFHEKELSKYFAQFGDLKEVRLARNKKTGNSRHYGFLEFVNKEDAMIAQESMNNYLLMGHLLQVRVLPKGAKIEKLYKYKKRVLVEKGITKPVKQLKDNMKQKHEERIKKLAKSGIEFKW
# B2: Cic1 (protein, UniProt P38779 1-376)
# chain: MAKKSNSKKSTPVSTPSKEKKKVIEKKSSTAIPRERVIKAVNELIKFTSKPQDENNEEGNNGKKNLLEDDEEELKKDLQLIVVNNKSFTGTSKSFKLKLLNVKHSFYKPWKEASATAVKDFKVLLILKDSDIKKVSEDDLFDQLDSEGIKVDEIICGKDLKTVYKAYEARNAFISQFSLILADDSIVTSLPKLMGGKAYNKVETTPISIRTHANKEFSLTTLTNNIKKVYMNQLPVKLPRGTTLNVHLGNLEWLRPEEFVDNVELISEQLIKAYQIRSIFIKTNRSPVLPLYYNQDVLDELEAKKDKIEETHEDDMVTIDGVQVHLSTFNKGLMEIANPSELGSIFSKQINNAKKRSSSELEKESSESEAVKKAKS
# B3: Rlp7 (protein, UniProt P40693 1-322)
# chain: MSSTQDSKAQTLNSNPEILLRKRRNADRTRIERQELAKKKREEQIKKKRSNKNKFVRAESIVAKTLATSREKERIKRVSILEDKKAKNETQHIASGKDFILKITEKANGAEENSVDLEETEEEEDDGLIREKTTYDGKPALLFIVRVRGPLAVNIPNKAFKILSLLRLVETNTGVFVKLTKNVYPLLKVIAPYVVIGKPSLSSIRSLIQKRGRIIYKGENEAEPHEIVLNDNNIVEEQLGDHGIICVEDIIHEIATMGESFSVCNFFLQPFKLNREVSGFGSLNRLRKIKQREAESRTRQFSNAATAPVIEVDIDSLLAKLN
# B4: Npa2 (protein, UniProt P47108 1-1174)
# chain: MGDLTEELSIPDNAQDLSKLLRSTSTKPHQIAEIVSKFDKLETYFPKKEIFVLDLLIDRLNNGNLDDFKTSEHTWIIFTRLLDAINDPISIKKLLKKLKTVPVMIRTFFLWPKDKLLTRSVSFIKAFFAINDYLIVNFSVEESFQLLEHAINGLSSCPTTDFALSYLQDACNLTHVDNITTTDNKIATCYCKHMLLPSLRYFAQTKNSASSNQSFIRLSHFMGKFLLQPRIDYMKLNKKFVQENASEITDDMAYYYFATFVTFLSKDNFAQLEVIFTILGAKKPSLECRFLNLLSESKKTVSQEFLEALLLEMLASTDESGVLSLIPIILKLDIEVAIKHIFRLLELIQLENLNDPLFSSHIWDLIIQSHANARELSDFFAKINEYCSRKGPDSYFLINHPAYVKSITKQLFTLSSLQWKNLLQALLDQVNHDSTNRVPLYLIRICLEGLSEGASRATLDEVKPILSQVFTLESFNNSLQWDLKYHIMEVYDDIVPAEELEKIDYVLSSNIFDTTSADVEELFFYCFKLREYISFDLSDAKKKFMRHFEILDEERKSNLSYSVVSKFATLVNNNFTREQISSLIDSLLLNSTNLSSLLKNDDIFEETNITYALINKLASSYHQTFALEALIQIPIQCINKNVRVALINNLTCESFCLDSATRECLLHLLSSPTFKSNIETNFYELCEKTIMSPEMAISETGDEKKEIEDKISIFEKVWTNHLSQAKEPVSEKFLESGYDIVKQSMSLSNGDSKLIIAGFTIAKFLKPDNKHRDIQGMAISYAVKILENYSENFESETIPLFRISMSTLYKIITTGQGDISKHKSRILDIFSKIMLRYHSKKVYHAPEEQEMFLVHSLLTENKLEYIFAEYLNIEHTDKCDSALGFCLEESLKQGPDAFNRLLWNSAKSFSTISQPCAEKFVRVFIIMSKRIARDNNLGHHLFVIALLEAYTYCDIEKFGYKSYLLLFNAIKEFLVSKPWLFSQYCIEMLLPFCLKTLAFIVNHESTDEINEGFINIIEVIDHMLLVHRFKFSNRHHLFNSVLCQILEIIAIHDGTLCANSADAVARLITNYCEPYNVSNAQNGQKNNLSSKISLIKQSIRKNVLVVLTKYIQLSITTQFSLNIKKSLQPGIHAIFDILSQNELNQLNAFLDTPGKQYFKALYLQYKKVGKWRED
# Biological target: T1, Nop2-TAP (S. cerevisiae)
# Experiment: affinity purification with mass spectrometry; Nop2-TAP particles isolated from whole-cell lysate of wild-type and Δdbp7 cells on IgG sepharose, eluted by overnight TEV cleavage; MS, two biological replicates
row,binding,Binder
1,binds,B1
2,binds,B2
3,binds,B3
4,binds,B4
